# Results as given in PubChem BioAssay AID2685 (National Center for Advancing Translational Sciences (NCATS), 2010).
# The other results are listed elsewhere or left out. The main result of the screen is listed elsewhere. These columns were measured beside it and carry no call. Compounds called inactive in the main read-out are mostly missing here. Potencies come from curve fits of mixed quality, noted in brackets.
# Test: qHTS Assay for Lipid Storage Modulators in Drosophila S3 Cells;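 on cell number change: cells counted by Cell Tracker Red CMTPX staining in the red channel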
# Conditions: BODIPY lipid droplet fluorescence, 18-24 h; for cell number change: measured here: cell count max response, cells fed with added oleic acid
# Summary of the method: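 Drosophila S3 cells loaded with oleic acid (400 uM, as added) and compounds at several concentrations; lipid droplets imaged by 488-nm laser-scanning cytometry, 500–530 nm intensity and object ratio to cell channel. Percent activity normalized to 20 uM Triacsin C.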
# [1] = measured here: cell number channel AC50, cells fed with added oleic acid
# [2] = measured here: lipid fluorescence (Fed channel) AC50, cells fed with added oleic acid
Compound,cell number change,AC50 [1],AC50 [2]
COc1ccccc1-n1ccnc1SCC(=O)NCC1CCCO1 (centres undefined),37.3%,"13 µM [rising, partial curve, poor fit]",–
O=C(O)c1cccc(Nc2cc(Cl)c3nonc3c2[N+](=O)[O-])c1,26.6%,–,–
COC(=O)c1cc(OC)nc2c1c(=O)n(C)c(=O)n2C,-23.1%,–,"0.58 µM [falling, full curve, poor fit]"
COc1ccc(N2CCN(CC(=O)Nc3cc(C)cc(C)c3)CC2)cc1,2.35%,–,"18.4 µM [falling, single point]"
COc1cccc(CNc2ccc([N+](=O)[O-])c(NCC(=O)O)n2)c1,121%,"25.9 µM [rising, single point]","29.1 µM [rising, single point]"
Cc1ccc(C(=O)CC2C(=O)N(c3ccccc3)C(=S)N2c2ccccc2)cc1 (centres undefined),6.31%,–,"29.1 µM [falling, single point]"
NNC(=O)/C(=C\c1ccco1)NC(=O)c1ccco1,–,"0.116 µM [falling, full curve]",–
CC(=O)Nc1cccc(NC(=O)CSc2nnnn2-c2ccc3c(c2)OCO3)c1,14.7%,–,"5.8 µM [rising, single point]"
COC(=O)c1c(C)oc2ccc(N(C(=O)c3ccncc3)S(=O)(=O)c3ccc4ccccc4c3)cc12,-26%,–,–
COc1cc([N+](=O)[O-])ccc1NC(=O)CCN1C(=O)C2C3CCC(C3)C2C1=O (centres undefined),8.36%,–,"29.1 µM [rising, single point]"
Cc1ccccc1NC(=O)CN(C)S(=O)(=O)c1cccs1,5.86%,–,"29.1 µM [rising, single point]"
Cc1ccc(OCCCCN(C)Cc2ccccc2)c(Br)c1,-27.8%,–,"0.231 µM [falling, full curve, poor fit]"
c1ccc(-c2cc3c(-n4cccc4)ncnc3o2)cc1,-39.1%,"10.3 µM [falling, partial curve]","16.4 µM [falling, partial curve, poor fit]"
COC(=O)C1=C(O)CSC1=Nc1ccc(C)cc1,–,–,"16.4 µM [rising, partial curve]"
Fc1ccccc1NC(=S)NN(Cc1ccccc1)c1ccccc1,46.6%,"8.2 µM [rising, partial curve, poor fit]","7.31 µM [falling, single point]"
Cc1csc2ncnc(N3CCN(C(=S)Nc4ccc(C(F)(F)F)cc4)CC3)c12,13.1%,"1.3 µM [rising, partial curve, poor fit]","4.61 µM [rising, partial curve, poor fit]"
Fc1ccc(Cn2cnc3ccccc32)cc1,–,–,"0.326 µM [falling, single point]"
CCN(CC)S(=O)(=O)c1ccc2c(c1)c(=O)c(C(=O)N1CCc3ccccc3C1)cn2C,-24.3%,–,"7.31 µM [rising, partial curve]"
N=c1cc(C2(O)CCCCC2)n2c(nc3ccccc32)s1,3.06%,–,"0.731 µM [falling, single point]"

Compound,cell number change,AC50 [1],AC50 [2]
O=C1CCC(=O)N1CNc1cccnc1,-14.6%,–,"0.231 µM [falling, full curve, poor fit]"
CCc1nnc(SCC(=O)Nc2ccccc2)nc1CC,26.6%,"0.731 µM [rising, full curve, poor fit]","2.06 µM [rising, full curve, poor fit]"
Cc1ccn(-c2ccc(NC(=O)c3cccs3)cc2)n1,-21.1%,–,–
CCOc1ccc(N2CC(NS(=O)(=O)c3cccnc3)CC2=O)cc1 (centres undefined),58.1%,"9.2 µM [rising, partial curve]","1.64 µM [rising, partial curve]"
Cc1ccc(NC(=O)c2cncc(Br)c2)c(O)c1,-36.9%,"18.4 µM [falling, partial curve]",–
O=C(N/N=C/c1cc2c(cc1Br)OCO2)C1COc2ccccc2O1 (centres undefined),33.5%,"0.58 µM [rising, full curve]","0.92 µM [rising, full curve]"
COc1ccc(NC(=O)CSc2nnc(-c3ccncc3)o2)c([N+](=O)[O-])c1,8.84%,–,"0.092 µM [rising, full curve, poor fit]"
CC(NC(=O)c1ccc(CS(C)(=O)=O)cc1)c1cccc2ccccc12 (centres undefined),-6.67%,–,"29.1 µM [rising, single point]"
Cc1ccc(Cc2cnc(NC(=O)C3CCCO3)s2)cc1 (centres undefined),–,–,"4.61 µM [falling, single point]"
CCOc1ccc(CNC(=O)CCn2c(=O)oc3ccccc32)cc1OC,3%,–,"20.6 µM [rising, single point]"
CCCOc1c(Br)cc(C2C3=C(CCCC3=O)N(C)C3=C2C(=O)CCC3)cc1OC,42.7%,"8.2 µM [rising, partial curve, poor fit]","14.6 µM [rising, partial curve]"
O=C(NCCCNC(=O)c1cncc(O)c1)c1cncc(O)c1,-24%,–,"1.03 µM [falling, full curve]"
Cc1ccc(-c2csc(NC(=O)C[n+]3cc(-c4ccc(C)cc4)n4c3CCC4)n2)cc1,-67.3%,"23.1 µM [falling, single point]",–
CCOC(=O)c1c(C)[nH]c(C(=O)CSc2nnc(-c3ccncc3)n2CC)c1C,8.99%,–,"1.3 µM [rising, full curve]"
NC(=O)c1ccsc1NC(=O)COC(=O)c1ccccc1NCc1ccco1,-26.8%,–,–
COc1ccc(N2CCn3c2nc2c3c(=O)n(CCCc3ccccc3)c(=O)n2C)c(OC)c1,-23.2%,–,"1.46 µM [rising, full curve, poor fit]"
Cc1c(CC(=O)N2CCC(C(N)=O)CC2)c(=O)oc2cc3c(cc12)CCC1(CCCCC1)O3,–,–,"14.6 µM [falling, partial curve]"
CCN(CC)c1ccc(C=NCCc2ccc(S(N)(=O)=O)cc2)cc1,–,–,"2.91 µM [falling, single point]"
COc1ccccc1-c1noc2ncnc(Nc3ccc4c(c3)OCO4)c12,3.24%,–,"29.1 µM [rising, single point]"

# Copied from the list:
# Cc1ccc(Cc2cnc(NC(=O)C3CCCO3)s2)cc1 (centres undefined) – AC50 [2]: 4.61 µM [falling, single point]
# CC(NC(=O)c1ccc(CS(C)(=O)=O)cc1)c1cccc2ccccc12 (centres undefined) – AC50 [2]: 29.1 µM [rising, single point]
